# Experimental data: PubChem BioAssay AID493014 (National Center for Advancing Translational Sciences (NCATS), 2011)
# The other results are listed elsewhere or left out. The main result of the screen is listed elsewhere. These columns were measured beside it and carry no call. Compounds called inactive in the main read-out are mostly missing here. Words in brackets tell the shape of the fitted curve; partial curves, single points and poor fits give uncertain potencies.
# Experiment: qHTS Assay to Find Inhibitors of Chronic Active B-Cell Receptor Signaling
# Conditions: ABC-DLBCL IkBa-CBG/CBR reporter, luminescence ratio (green luciferase fused to IkBa over red control in TMD8 lymphoma cells), 4 h
# From the text: NIH Molecular Libraries Probe Production Network [MLPCN] NIH Chemical Genomics Center [NCGC] MLPCN Grant: 1 R03 DA031086-01A1 PI Name: Dr. R. Eric Davis NCGC Assay Overview: Diffuse large B-cell lymphoma (DLBCL) is the most common category of non-Hodgkin lymphoma, with ~20,000 new cases per year in the United States. DLBCL should be regarded as a collection of different neoplasms. Microarray gene expression analysis has defined two principal types of DLBCL, named for their similarity to normal B cell stages or activation states: a germinal center B-cell (GCB) type, and an activated B-cell (ABC) type. In ABC-DLBCL, a constitutive high-level activity of the NF-kappaB family of transcription factors has been observed (1) and NF-kappaB target genes are more highly expressed in ABC primary tumors than in GCB tumors. Functional studies have shown a constitutive high-level activity of the IkappaB (inhibitor of kappa-B) kinase (IKK) complex. […] Further analysis of DLBCL primary tumors for NF-kappaB target gene expression imply that although CARD11 is required for constitutive IKK activity in all ABC-DLBCL lines, mutations in CARD11 may be the root cause of IKK activation only in lines or tumors with such mutations. In other words, CARD11 mutations may explain NF-kappaB activation in only 10% of ABC-DLBCL cases. […] This process has been termed 'chronic active BCR signaling' (CABS). The goal of this screen is to find small-molecule inhibitors of the CABS pathway found in ABC-DLBCL lines using a cell-based assay that measures IkappaBalpa stability, which has already been extensively validated in the OCI-Ly3 line (PubChem AID:445; REF: 4). […] The assay uses green (CBG68) and red (CBR) emitting beetle luciferases [Chroma-GloTM developed by Promega Corp.] where the green luciferase is fused to IkappaBalpha and the red luciferase is present in its native state. Both luciferase genes are stably present in the TMD8 human ABC DLBCL cell line, but their expression is under the control of tetracycline-inducible promoters. Following the addition of doxycycline to induce expression of the luciferases, the green luminescence in control cultures rises only slowly because the CBG fusion partner IkappaBalpha is targeted by IKK activity for rapid degradation. In contrast, green luminescence rises rapidly in the presence of proteasome inhibitors or IKK inhibitors. The rise in red luminescence of CBR is not affected by proteasome or IKK inhibitors, and serves as normalization for cell number and nonspecific effects. Compounds were screened as a concentration-titration series that ranged from 46 uM to 3 nM.
# NCGC Assay Protocol Summary: Cells were seeded in 1536-well plates at 5000 cells/4uL in IMDM medium containing 0.5% FBS, w/o phenol red, 1% penicillin/streptomycin. Then, 23 nL of compounds or DMSO were delivered to each well using a pin tool. One uL 20ng/ml doxycycline was then dispensed into white solid 1536-well plates and the plates were incubated at 37C/5% C02 in a cell incubator for 4 hrs. Then 4 uL luminescent substrate mix (in-house prepared: 150 mM Tris-Cl, pH 7.6, 3 mM MgCl2, 1% Triton X-100, 5 mM DTT, 0.2 mM CoA, 0.15 mM ATP, 5 mM D-luciferin, final concentrations) was added to each well. The plate was incubated at r.t. for 10-15 min. The plates were measured on a ViewLux plate reader for green luminescence (540/20 nm filter) and red luminescence (618/8 nm filter). The green and red luminescent signals were corrected for red and green luminescence filter overlap using previously determined filter calibration constants (determined using the procedure outlined in the Promega Technical Manual; REF 4). The %Activity was determined from the ratio of corrected green/red luminescent values. MG132 were used as control. […] Red luminescent %Activity was normalized to the difference between red luminesence in basal cells (0%Activity) and zero luminescence (-100% Activity). […]
# [1] = measured here: CBR red luminescence, cell number
# [2] = measured here: IkBa-CBG green luminescence
structure (smiles),measurement,setting,value
COc1ccc(-c2cn(CCC(=O)O)c(C)n2)cc1,AC50,[1],"14.6 µM [falling, partial curve, poor fit]"
Cn1cc(Cl)c(-c2nc3ccccc3[nH]2)n1,AC50,[1],"25.9 µM [falling, partial curve]"
CCOC(=O)C(C)Sc1ccc2nnc(-c3ccc(F)cc3)n2n1 (configuration not stated),AC50,[1],"2.24 µM [falling, full curve, poor fit]"
CCn1cc(/C=C/C(=O)Nc2ccn(Cc3c(F)c(F)cc(F)c3F)n2)cn1,AC50,[1],"13 µM [falling, partial curve, poor fit]"
CCOC(=O)Cc1csc(NC(=O)COc2ccc(OC)cc2)n1,AC50,[1],"32.6 µM [falling, single point]"
O=C(N/N=C/c1ccc(OC(=O)c2ccccc2)c([N+](=O)[O-])c1)c1ccc(O)cc1,AC50,[1],"1.16 µM [falling, full curve]"
COc1cc(/C=C2\SC(N3CCCCC3)=NC2=O)cc(OC)c1OC,AC50,[1],"35.5 µM [falling, single point]"
Clc1ccc(N/N=C/c2cccnc2)cc1,AC50,[1],"0.259 µM [rising, full curve, poor fit]"
COc1ccccc1/C=N/NS(=O)(=O)c1ccccc1,AC50,[1],"25.1 µM [falling, single point]"
CCC(C(=O)OC(C)C)c1ccc2ccccc2c1 (configuration not stated),AC50,[1],"14.6 µM [rising, partial curve, poor fit]"
CC(=O)Nc1ccc(S(=O)(=O)N2CCC(NC(C)=O)(c3cccc(F)c3)CC2)cc1,AC50,[1],"17.8 µM [rising, partial curve, poor fit]"
O=C(COC(=O)C1=Cc2ccccc2OC1)NCc1ccco1,AC50,[1],"11.2 µM [rising, partial curve, poor fit]"
CCS(=O)(=O)Nc1cccc(C2=NN(S(=O)(=O)c3ccccc3)C(c3ccco3)C2)c1 (configuration not stated),AC50,[1],"35.5 µM [falling, partial curve, poor fit]"
O=c1oc2cc(Cl)ccc2n1CSc1nc2ccccc2s1,AC50,[1],"2.06 µM [rising, full curve, poor fit]"
O=C(Sc1cccc2cccnc12)c1ccc(F)cc1,AC50,[1],"5.01 µM [falling, single point]"
COC(=O)c1c(C)oc2ccc(N(C(=O)c3ccncc3)S(=O)(=O)c3ccc(C)cc3C)cc12,AC50,[1],"18.4 µM [falling, partial curve, poor fit]"
O=C(O)c1cccc(COc2ccccc2Cl)c1,AC50,[2],"2.91 µM [rising, full curve, poor fit]"
N#C/C(=C\c1ccncc1)c1nc2ccccc2o1,AC50,[1],"11.2 µM [falling, partial curve, poor fit]"
O=C(Nc1ccc(Cl)cc1)Nc1nnc(CSCc2ccc(Cl)cc2)s1,AC50,[1],"25.9 µM [rising, single point]"
COc1ccc(NC(C)=O)cc1NC(C)C(=O)Nc1cccc(S(=O)(=O)N2CCOCC2)c1 (configuration not stated),AC50,[1],"14.6 µM [rising, partial curve, poor fit]"
CC(=O)N1CCOc2cc(S(=O)(=O)Nc3cccc(C(F)(F)F)c3)c(Cl)cc21,AC50,[1],"23.1 µM [falling, single point]"
O=C(/C=C/c1c(Cl)cccc1Cl)NCc1ccco1,AC50,[1],"20.6 µM [rising, partial curve, poor fit]"
N#Cc1ccc(COC(=O)c2ccc(N3CCCC3)c([N+](=O)[O-])c2)cc1,AC50,[1],"18.4 µM [rising, single point]"
CCCCC(OC(=O)CN1C(=O)COc2ccccc21)C(=O)NC1CCCCC1 (configuration not stated),AC50,[1],"1 µM [rising, full curve, poor fit]"
O=C(NCC1CCCCC1)c1ccc(F)cc1Cl,AC50,[1],"15.8 µM [rising, partial curve, poor fit]"
Cc1cc(Nc2cccc([N+](=O)[O-])c2)n2c(nc3ccccc32)c1C#N,AC50,[1],"0.731 µM [rising, partial curve, poor fit]"
O=C(NCCCn1ccnc1)Nc1ccc(Cl)cc1,AC50,[1],"1.12 µM [rising, partial curve, poor fit]"
Nc1ccc2nn(-c3ccccc3)nc2c1,AC50,[1],"2.51 µM [rising, partial curve]"
C/C(=N\NC(=O)c1cccc(Br)c1)c1cccnc1,AC50,[1],"10 µM [falling, partial curve, poor fit]"
COc1ccc(C(C)(C)C)cc1NC(=O)c1ccc2c(c1)SC1=NS(=O)(=O)CCN12,AC50,[1],"35.5 µM [falling, single point]"
Cc1cc(Nc2cccc(Cl)c2C)n2ncnc2n1,AC50,[1],"29.1 µM [rising, single point]"
Cc1cccc(N2CCN(C(=O)c3cc(S(=O)(=O)N4CCOCC4)cn3C)CC2)c1C,AC50,[1],"11.2 µM [falling, partial curve, poor fit]"
COc1cc(/C=N/NC(=O)c2cc(-c3ccccc3)nc3ccccc23)ccc1O,AC50,[1],"35.5 µM [rising, single point]"
COC(=O)CNC(=O)C1CCN(S(=O)(=O)c2cnc[nH]2)CC1,AC50,[1],"35.5 µM [rising, partial curve, poor fit]"
COc1ccc(NC(=O)CN2C(=O)NC3(CCCC3)C2=O)cc1Cl,AC50,[1],"35.5 µM [rising, partial curve, poor fit]"
CCCC(=O)Nc1c(C)n[nH]c1C,AC50,[1],"1.26 µM [falling, partial curve, poor fit]"
O=C(Nc1c(F)cccc1F)c1cnc(N2CCN(c3ccccn3)CC2)c2ccccc12,AC50,[1],"16.4 µM [falling, single point]"
CCOC(=O)c1ccc(N=Cc2c(O)c3ccccc3oc2=O)cc1,AC50,[1],"2.51 µM [falling, full curve]"
COc1ccc(-c2cc(-c3ccccc3)no2)cc1,AC50,[1],"5.17 µM [falling, full curve]"
O=C(CNC(=S)NC(=O)c1cccc([N+](=O)[O-])c1)c1ccccc1,AC50,[1],"18.4 µM [rising, single point]"
Nc1nc2c(-c3ccc(Br)cc3)nnn2c2ccccc12,AC50,[1],"17.8 µM [rising, single point]"
O=c1[nH]nc(SCc2ccccc2Cl)n1-c1ccc2c(c1)OCCO2,AC50,[1],"15.8 µM [rising, partial curve, poor fit]"
O=C(O)CCn1nnc(-c2cccs2)n1,AC50,[1],"31.6 µM [rising, partial curve, poor fit]"
Cc1ccc(N/C(N)=N/c2nc3c(c(=O)[nH]2)CCCC3)c(C)c1,AC50,[1],"15.8 µM [falling, single point]"
S=c1c2c(nc3nc[nH]n13)CCC2,AC50,[1],"10 µM [rising, partial curve, poor fit]"
same,AC50,[2],"3.16 µM [falling, partial curve, poor fit]"
Oc1ccc(NCc2cccc(OCc3ccccc3)c2)cc1,AC50,[2],"25.1 µM [falling, partial curve, poor fit]"
CCOC(=O)c1nnn2c1nc(SCC(C)=O)c1ccccc12,AC50,[1],"3.98 µM [falling, full curve]"
Cn1cc([N+](=O)[O-])c(C(=O)Nc2ccc3nc(-c4ccccc4)[nH]c3c2)n1,AC50,[1],"9.2 µM [falling, partial curve]"
COc1ccc(C(=O)NCCC2=CCCCC2)cc1OC,AC50,[1],"29.1 µM [falling, single point]"
CSc1ccc(C2=CC(=O)C[C@H](c3ccc(Cl)cc3)C2)cc1,AC50,[1],"1.84 µM [rising, full curve]"
C/C=C/Cn1c(Br)nc2c1c(=O)n(C)c(=O)n2C,AC50,[1],"1.84 µM [falling, partial curve, poor fit]"
O=C(NCc1ccco1)c1ccc(-c2cccc(Cl)c2)o1,AC50,[1],"0.562 µM [rising, full curve, poor fit]"
CC(C)CCN1CC(=O)N2[C@@H](Cc3c([nH]c4ccccc34)C2(C)C)C1=O,AC50,[1],"10 µM [rising, partial curve, poor fit]"
Clc1ccccc1-c1cc(COc2ccc3ccccc3c2)no1,AC50,[1],"20.6 µM [rising, partial curve, poor fit]"
COc1ccc(NC(=O)CSc2nnc(C3CCCCC3)n2N)c(OC)c1,AC50,[1],"7.94 µM [falling, partial curve, poor fit]"
CCN(CC)S(=O)(=O)c1ccc(N2CCCCC2)c(NC(=O)/C=C/c2ccc(OC)c(OC)c2)c1,AC50,[1],"3.66 µM [rising, full curve, poor fit]"
CCOC(=O)c1c(C)[nH]c(C(=O)N/N=C\c2ccccc2Cl)c1C,AC50,[1],"20.6 µM [rising, single point]"
same,AC50,[2],"18.4 µM [falling, single point]"
Cc1ccc2c(C(=O)CSc3ccccc3)c(C)[nH]c2c1,AC50,[1],"0.461 µM [rising, full curve, poor fit]"
Cc1nc(-c2ccccc2)sc1C(=O)CSc1ccc(Cl)cc1,AC50,[1],"0.00366 µM [rising, full curve, poor fit]"
same,AC50,[2],"3.26 µM [rising, partial curve, poor fit]"
CCn1ccnc1CNC(=O)c1ccc2oc(CCCc3ccccc3)nc2c1,AC50,[1],"3.16 µM [rising, partial curve]"
COc1cccc(-n2c(=O)c3sccc3n(CC(=O)NCC3CCCO3)c2=O)c1 (configuration not stated),AC50,[1],"5.62 µM [rising, single point]"
COc1ccc(Nc2nc(NCc3ccco3)nc(N/N=C/c3ccc(O)cc3)n2)cc1,AC50,[1],"8.2 µM [falling, partial curve]"
CCOC(=O)Cc1csc(NC(=O)c2ccoc2C)n1,AC50,[1],"16.4 µM [falling, partial curve, poor fit]"
N=C1/C(=C/c2ccc(OCc3ccccc3)cc2)C(=O)N=C2SC(CC(=O)N3CCOCC3)=NN12,AC50,[1],"10 µM [rising, partial curve, poor fit]"

# 3 entries from above in a different format.
structure (smiles)	measurement	setting	value
O=C(COC(=O)C1=Cc2ccccc2OC1)NCc1ccco1	AC50	[1]	11.2 µM [rising, partial curve, poor fit]
CCOC(=O)c1nnn2c1nc(SCC(C)=O)c1ccccc12	AC50	[1]	3.98 µM [falling, full curve]
CCOC(=O)c1c(C)[nH]c(C(=O)N/N=C\c2ccccc2Cl)c1C	AC50	[2]	18.4 µM [falling, single point]
